In US20170226211A1:
Results are given in words; binding and its absence hold for the method and conditions named. Binding can be weak; no strength is given.

Columns and labels:
[1] = target: Cynomolgus/Rhesus CTLA-4 (cynomolgus/rhesus); assay: ELISA similar to Example 5
[2] = target: Cynomolgus/Rhesus CTLA-4 (cynomolgus/rhesus); assay: ELISA, antibody coated, Cynomolgus/Rhesus CTLA-4 titrated

binding [1]: binds
binding [2]: binds
B1: anti-CTLA-4 antibody clone 2C8, human IgG1 (antibody, V domains shown)
VH: QVQLQQSGPGLVKPSQTLSLTCAISGDTVSSNTAAWNWIRQSPSRGLEWLGRTYYRSKWYSDYGLSVKSRMTINADTSKNQVSLHLNSVTPEDTAVYYCAREGSGGTLIYWGQGTLVTVSS
VL: DIQLTQSPSSVSASVGDRVTITCRATQGISSWLAWYQQKPGKAPKLLIYAASSLQSGVPSRFSGSGSGTEFTLTISSLQPEDFATYYCQQANTLPLFTFGPGTKVDIK
